Data taken from patent EP2519511B1, “NOVEL PIPERINE DERIVATIVES AS GABA-A RECEPTORS MODULATORS” (Universität Wien, priority 2009, dated 2011).
“Also recorded” adds a separate entry of the source. For at least one compound, name, drawing or mass did not settle the structure.

Sequences of proteins named here, by UniProt entry; tags and fusion partners are left off. Residues count along the entry.
UniProt P14867, 28-456: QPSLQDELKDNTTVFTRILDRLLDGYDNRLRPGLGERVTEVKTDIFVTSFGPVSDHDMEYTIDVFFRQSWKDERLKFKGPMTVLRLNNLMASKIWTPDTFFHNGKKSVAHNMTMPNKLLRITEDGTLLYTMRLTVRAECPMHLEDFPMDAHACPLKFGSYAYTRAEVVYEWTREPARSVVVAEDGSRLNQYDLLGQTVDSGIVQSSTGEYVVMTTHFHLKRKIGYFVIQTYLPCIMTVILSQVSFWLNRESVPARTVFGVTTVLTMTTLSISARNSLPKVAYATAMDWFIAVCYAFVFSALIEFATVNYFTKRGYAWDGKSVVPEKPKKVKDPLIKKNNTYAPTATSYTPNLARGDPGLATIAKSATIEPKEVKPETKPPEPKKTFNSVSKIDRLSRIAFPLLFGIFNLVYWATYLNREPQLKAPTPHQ
UniProt P18507, 40-475: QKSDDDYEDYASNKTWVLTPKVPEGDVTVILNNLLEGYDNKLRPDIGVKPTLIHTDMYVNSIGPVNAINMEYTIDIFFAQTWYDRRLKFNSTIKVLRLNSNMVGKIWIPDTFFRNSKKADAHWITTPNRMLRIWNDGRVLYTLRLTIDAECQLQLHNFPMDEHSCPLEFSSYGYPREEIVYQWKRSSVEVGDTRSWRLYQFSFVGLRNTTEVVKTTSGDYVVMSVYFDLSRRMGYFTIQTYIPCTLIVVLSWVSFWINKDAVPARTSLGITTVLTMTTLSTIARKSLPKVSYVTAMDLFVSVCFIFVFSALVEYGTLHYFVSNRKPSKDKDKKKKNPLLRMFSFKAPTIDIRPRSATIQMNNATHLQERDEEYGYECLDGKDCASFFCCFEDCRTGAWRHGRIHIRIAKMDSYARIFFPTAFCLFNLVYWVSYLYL
UniProt P47870, 25-512 limits assumed: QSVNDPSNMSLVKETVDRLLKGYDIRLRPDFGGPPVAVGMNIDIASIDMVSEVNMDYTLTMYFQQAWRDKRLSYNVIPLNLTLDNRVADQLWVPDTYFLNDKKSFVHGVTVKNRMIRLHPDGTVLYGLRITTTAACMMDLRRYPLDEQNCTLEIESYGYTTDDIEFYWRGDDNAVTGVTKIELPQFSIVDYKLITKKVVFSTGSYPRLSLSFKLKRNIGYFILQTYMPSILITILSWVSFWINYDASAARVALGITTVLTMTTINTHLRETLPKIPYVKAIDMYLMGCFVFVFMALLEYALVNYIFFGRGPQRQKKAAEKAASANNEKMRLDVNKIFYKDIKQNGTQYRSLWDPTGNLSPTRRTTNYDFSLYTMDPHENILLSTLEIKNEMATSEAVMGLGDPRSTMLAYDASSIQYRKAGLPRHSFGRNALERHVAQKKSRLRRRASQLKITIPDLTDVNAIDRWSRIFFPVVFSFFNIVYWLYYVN
UniProt Q8NER1, whole entry: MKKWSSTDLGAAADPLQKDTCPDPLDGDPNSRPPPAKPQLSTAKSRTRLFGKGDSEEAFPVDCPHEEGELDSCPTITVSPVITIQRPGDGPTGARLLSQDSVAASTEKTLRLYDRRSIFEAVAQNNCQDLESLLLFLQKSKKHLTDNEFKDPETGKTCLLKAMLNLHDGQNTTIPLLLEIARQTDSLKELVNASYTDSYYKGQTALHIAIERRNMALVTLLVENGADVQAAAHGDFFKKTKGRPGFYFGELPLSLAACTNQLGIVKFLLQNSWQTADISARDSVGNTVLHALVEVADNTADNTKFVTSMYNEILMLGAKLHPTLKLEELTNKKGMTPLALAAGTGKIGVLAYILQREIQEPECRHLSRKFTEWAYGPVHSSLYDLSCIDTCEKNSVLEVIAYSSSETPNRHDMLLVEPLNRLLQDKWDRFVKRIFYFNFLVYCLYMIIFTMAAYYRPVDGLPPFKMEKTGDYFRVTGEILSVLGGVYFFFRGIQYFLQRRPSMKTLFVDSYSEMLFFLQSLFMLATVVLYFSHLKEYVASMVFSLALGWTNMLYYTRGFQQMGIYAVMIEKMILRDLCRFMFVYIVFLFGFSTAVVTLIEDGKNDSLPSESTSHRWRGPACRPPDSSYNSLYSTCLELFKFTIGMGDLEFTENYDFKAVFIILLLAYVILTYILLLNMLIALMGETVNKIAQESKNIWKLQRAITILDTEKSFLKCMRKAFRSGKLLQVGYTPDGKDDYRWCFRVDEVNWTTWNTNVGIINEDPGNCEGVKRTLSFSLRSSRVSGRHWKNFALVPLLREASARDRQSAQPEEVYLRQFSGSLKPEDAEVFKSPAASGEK

Tests used:
[1] = molecular target: GABAA channels composed of α1β2γ2 subunits (Homo sapiens, UniProt P14867+P18507+P47870); assay: Modulation of IGABA, two-microelectrode voltage clamp in Xenopus laevis oocytes; type: cell-based; settings: α1β2γ2, GABA EC5-10, Fig. 2
Method: The following paragraphs describe the preparation of oocytes expressing the specific GABAA receptor subtype composed of α1, β2 and γ2 subunits and the subsequent analysis of the concentration-response curves of the stimulation of chloride currents through GABAA receptors (IGABA).
Preparation of stage V-VI oocytes from Xenopus laevis, synthesis of capped off run-off poly(A^+) cRNA transcripts from linearized cDNA templates (pCMV vector) was performed as described (Khom et al. 2006). […] The amount of cRNA was determined by means of a NanoDrop ND-1000 (Kiskerbiotech, Steinfurt, Germany). […]
Stimulation of chloride currents by modulators of the GABAA receptor was measured at a GABA concentration eliciting between 5 and 10 % of the maximal current amplitude (EC5-10). The EC5-10 was determined at the beginning of each experiment.
Enhancement of the chloride current was defined as (I(GABA+Comp)/IGABA) - 1, where I(GABA+Comp) is the current response in the presence of a given compound (piperine or piperin derivatives) and IGABA is the control GABA current. […] Statistical significance was calculated using paired Student t-test with a confidence interval of p < 0.05 (Khom et al., 2007). […]

[2] = molecular target: human TRPV1 receptor (hTRPV1) (Homo sapiens, UniProt Q8NER1); assay: Activation of cation current through TRPV1 expressed in Xenopus oocytes; type: cell-based; settings: 300 µM applied to oocytes, Fig. 4
Method: cRNA encoding for the human TRPV1 receptor (hTRPV1) was injected into Xenopus oocytes as previously described (Hu et al. 2004).

Structure (SMILES): O=C(/C=C/C=C/c1ccc2c(c1)OCO2)N1CCCCC1 [piperine, Piperine]
- modulation of IGABA [1]: positive allosteric modulatory effect by enhancing IGABA
- cation current through TRPV1 receptors [2]: induced cation currents; also recorded: cation current through TRPV1 receptors induced
